# Experimental data reported in paper PMC3701712.
# Amino acid sequences for entries named in this document (tags omitted).
# UniProt P03496: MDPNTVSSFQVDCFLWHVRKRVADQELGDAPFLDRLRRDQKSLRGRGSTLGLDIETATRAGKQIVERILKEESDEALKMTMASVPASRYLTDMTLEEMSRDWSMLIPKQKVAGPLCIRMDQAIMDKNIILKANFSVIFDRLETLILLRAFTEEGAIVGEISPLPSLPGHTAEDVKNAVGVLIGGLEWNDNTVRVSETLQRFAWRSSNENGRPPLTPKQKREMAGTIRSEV
# No constants are given. Whether binding was seen depends on the method and setting. Some binding calls cover weakened binding; strength is not graded here. Where a sequence is shown, tags or fusion partners need not be part of it.
# B1: full-length ADAR1 fused to Gal4 activating domain (protein, UniProt P55265 1-1226)
# chain: MNPRQGYSLSGYYTHPFQGYEHRQLRYQQPGPGSSPSSFLLKQIEFLKGQLPEAPVIGKQTPSLPPSLPGLRPRFPVLLASSTRGRQVDIRGVPRGVHLRSQGLQRGFQHPSPRGRSLPQRGVDCLSSHFQELSIYQDQEQRILKFLEELGEGKATTAHDLSGKLGTPKKEINRVLYSLAKKGKLQKEAGTPPLWKIAVSTQAWNQHSGVVRPDGHSQGAPNSDPSLEPEDRNSTSVSEDLLEPFIAVSAQAWNQHSGVVRPDSHSQGSPNSDPGLEPEDSNSTSALEDPLEFLDMAEIKEKICDYLFNVSDSSALNLAKNIGLTKARDINAVLIDMERQGDVYRQGTTPPIWHLTDKKRERMQIKRNTNSVPETAPAAIPETKRNAEFLTCNIPTSNASNNMVTTEKVENGQEPVIKLENRQEARPEPARLKPPVHYNGPSKAGYVDFENGQWATDDIPDDLNSIRAAPGEFRAIMEMPSFYSHGLPRCSPYKKLTECQLKNPISGLLEYAQFASQTCEFNMIEQSGPPHEPRFKFQVVINGREFPPAEAGSKKVAKQDAAMKAMTILLEEAKAKDSGKSEESSHYSTEKESEKTAESQTPTPSATSFFSGKSPVTTLLECMHKLGNSCEFRLLSKEGPAHEPKFQYCVAVGAQTFPSVSAPSKKVAKQMAAEEAMKALHGEATNSMASDNQPEGMISESLDNLESMMPNKVRKIGELVRYLNTNPVGGLLEYARSHGFAAEFKLVDQSGPPHEPKFVYQAKVGGRWFPAVCAHSKKQGKQEAADAALRVLIGENEKAERMGFTEVTPVTGASLRRTMLLLSRSPEAQPKTLPLTGSTFHDQIAMLSHRCFNTLTNSFQPSLLGRKILAAIIMKKDSEDMGVVVSLGTGNRCVKGDSLSLKGETVNDCHAEIISRRGFIRFLYSELMKYNSQTAKDSIFEPAKGGEKLQIKKTVSFHLYISTAPCGDGALFDKSCSDRAMESTESRHYPVFENPKQGKLRTKVENGEGTIPVESSDIVPTWDGIRLGERLRTMSCSDKILRWNVLGLQGALLTHFLQPIYLKSVTLGYLFSQGHLTRAICCRVTRDGSAFEDGLRHPFIVNHPKVGRVSIYDSKRQSGKTKETSVNWCLADGYDLEILDGTRGTVDGPRNELSRVSKKNIFLLFKKLCSFRYRRDLLRLSYGEAKKAARDYETAKNYFKKGLKDMGYGNWISKPQEEKNFYLCPV
# Molecular target: A/H1N1/Puerto Rico/8/34 virus NS1 protein fused to the Gal4 DNA-binding domain (influenza A virus A/H1N1/Puerto Rico/8/34) (UniProt P03496)
# Assay: two-hybrid
binder,measurement,value
B1,binding,binds
